# According to the supplement of paper PMC12889115:
# This is one part of the list. Values are raw readings; no control value is given beside them.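 In the initial screen, polymyxin B was used at a concentration that permeabilizes Salmonella's outer membrane but not its inner membrane. Maximum growth was set by DMSO wells with or without polymyxin B. Since plates varied, data were ranked per plate, and compounds giving the lowest OD600 advanced as hits.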
# Test system: Salmonella enterica serovar Typhimurium SL1344
# Test: bacterial growth OD600 after 18 h with compound and polymyxin B; higher = more bacterial growth (less inhibition)
# Details: 50 µM, Mueller-Hinton broth
SMILES,bacterial growth OD600 (polymyxin B 1 µg/mL),bacterial growth OD600 (polymyxin B 0.75 µg/mL)
C1CCC(Nc2nc3nonc3nc2NCCCN2CCOCC2)C1,0.84,
CC(Cn1cncn1)NC(=O)c1csc2nc(-c3ccccc3Cl)cn12 (centres undefined),0.808,
COc1ccccc1C(C)N(C)C(=O)c1cc(COc2ccccc2F)[nH]n1 (centres undefined),,0.534
COc1ccc(CCN(C)C(=O)CN2Cc3ccccc3OC(c3ccccc3OC)C2)cc1OC (centres undefined),,0.632
CCOC(=O)C1(Cc2ccc(F)cc2F)CCCN(C(=O)c2cc(C)nn2CC)C1 (centres undefined),1.33,
COc1cc(CC2(CCC(=O)N(Cc3c(C)nn(C)c3C)C3CC3)CCC(=O)N2)ccc1F (centres undefined),,0.821
CCOC(=O)C1(Cc2ccccc2F)CCCN(C(=O)CCC(=O)OC)C1 (centres undefined),0.908,
COc1cccc(C(=O)NCC2CCCN(C(=O)c3cnsn3)C2)c1OC (centres undefined),0.919,
C#CCN(CC=C)C(=O)c1ccccc1OC1CCN(C(=O)c2cccnc2)CC1,0.525,

# Laid out differently: results already given
SMILES	bacterial growth OD600 (polymyxin B 1 µg/mL)	bacterial growth OD600 (polymyxin B 0.75 µg/mL)
COc1ccc(CCN(C)C(=O)CN2Cc3ccccc3OC(c3ccccc3OC)C2)cc1OC (centres undefined)		0.632
CCOC(=O)C1(Cc2ccc(F)cc2F)CCCN(C(=O)c2cc(C)nn2CC)C1 (centres undefined)	1.33	
